Experimental data reported in article doi:10.1101/2021.12.21.473581.
These are yes or no findings as the source states them, for the method shown. In cells and extracts the contact can be indirect. Some results given as binding are weak or reduced against the parent protein; the word gives no strength.

Chains of the proteins cited; added tags and fusions are not shown. Lines headed by an entry give the natural chain unless they say otherwise; changes in a name come on top. Residues count along the entry.
UniProt P13688, residues 35-526: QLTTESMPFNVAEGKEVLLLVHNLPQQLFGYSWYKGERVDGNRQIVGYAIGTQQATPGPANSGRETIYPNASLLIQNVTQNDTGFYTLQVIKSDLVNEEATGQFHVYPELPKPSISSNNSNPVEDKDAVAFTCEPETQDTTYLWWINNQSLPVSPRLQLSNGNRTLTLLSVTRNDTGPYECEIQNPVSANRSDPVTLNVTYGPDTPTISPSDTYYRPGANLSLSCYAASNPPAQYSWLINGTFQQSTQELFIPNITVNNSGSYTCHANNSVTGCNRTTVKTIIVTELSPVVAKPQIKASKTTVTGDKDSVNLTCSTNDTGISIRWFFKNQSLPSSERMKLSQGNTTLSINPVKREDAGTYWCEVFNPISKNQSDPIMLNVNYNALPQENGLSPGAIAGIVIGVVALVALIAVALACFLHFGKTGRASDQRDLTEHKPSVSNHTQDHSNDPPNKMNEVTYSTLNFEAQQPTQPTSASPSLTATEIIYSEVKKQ

Molecular target: CEACAM1-4L with a carboxyl-terminus fused eYFP (CEACAM1-eYFP) (UniProt P13688)
Experiment: FRET or BRET

binding: binds
Substance: CEACAM1-4L with a carboxyl-terminus fused eYFP (CEACAM1-eYFP) (from UniProt P13688-1 35-526) (receptor)
